According to patent US4740501A (priority 1985, dated 1988):

Test system: MMTV proteins
Assay: Intracellular MMTV polypeptides (immune precipitation, NaDodSO4-PAGE)
Assay type: cell-based, mouse
Conditions: 15 uM
Description: Intracellular MMTV proteins were identified in monolayer cells after 24 or 48 hour exposure to 15 uM PTT.119. Cultures were labeled with 25 uCi/ml of (^3 H)-leucine for the first 24 hours and were then doubly labeled with (^35 S)-methionine when the spent media were replenished. The relative rates of MMTV polypeptide synthesis were determined using parallel cultures continuously-treated with PTT.119 and pulse labeled for 15 minutes with ^35 S-methionine. Following labeling, the cells were washed twice in cold 0.01M phosphate-buffered saline, pH 7.5, and a solution of protease inhibitors added to yield a final concentration of 1 uM pepstatin, 10 ug soybean trypsin inhibitor/ml, and 1 mM N-ethyl maleimide. Cells were then disrupted in 0.05M phosphate buffer containing 0.1M NaCl and 0.1% Triton X-100, pH 7.5 (Pi/NaCl/Triton). Cells were scraped from the substrate and lysis completed by passing the suspensions through a 27 gauge needle five times. Nuclei were removed by centrifugation at 600×g for 10 minutes at 4° C. and 100 ul aliquots of the supernatants mixed with 10 ul preimmune rabbit sera and 50 ul of 10% […] formalin-fixed and heat-killed.
Following a 15 minute incubation at 26° C., the Staphlococcus aureus (Cowan strain) immunoabsorbent was removed by centrifugation at 10,000×g for 1 minute in a Beckman microfuge. Supernatants (100 ul) were sequentially incubated at 26° C. with 33 ul of rabbit anti-MMTV antisera for 25 minutes and 150 ul of 10% S. aureus for 15 minutes. S. aureus was then pelleted and the precipitate washed five times in Pi/NaCl/Triton. Samples were finally resuspended in 20 ul of 1% NaDodSO4 /2-mercaptoethanol, heated for 1 minute at 100° C. to release MMTV proteins, and centrifuged to remove S. aureus. Supernatants were then subjected to NaDodSO4 -PAGE. Samples were disrupted in 1% NaDodSO4 and 1% B-mercaptoethanol at 100° C. for 1 minute electrophoresed on 10-20% polyacrylamide gradient slab gels using a discontinuous buffer system. Electrophoresis of immune precipitates from cell lysates was carried out in a similar manner using 7.5-15% polyacrylamide gradients. Mr of MMTV-related polypeptides were determined by coelectrophoresis of [^14 C]-protein standards (Mr 30,000 to 50,000 Da; New England Nuclear). Radioactivity was determined and the levels associated with MMTV polypeptide peaks quantitated using a generalized curve-fit computer program.

With `CCOC(=O)[C@H](CCSC)NC(=O)[C@H](Cc1cccc(N(CCCl)CCCl)c1)NC(=O)[C@@H](N)Cc1ccc(F)cc1.Cl` [PTT.119, 3-(p-fluorophenyl)-L-alanyl-3-[m-bis(2-chloroethyl)aminophenyl]-L-alanyl-L-methionine ethyl ester hydrochloride] as the molecule, how does the “mean dpm of all intracellular MMTV proteins” value (“mean dpm” below) (24 hr treatment, 15 min pulse labelling, control 58,422) read?
The value was 105,814 dpm.

What about the “mean dpm” value (24 hr treatment, 24 hr labeling, control 33,881) of the same molecule?
The value was 43,514 dpm.

What about the “Relative level of MMTV-associated radioactivity (%): p24” value (from here on “Relative level … (%): p24”) (24 hr, 15 min pulse labelling, control 1.8) of the same molecule?
The value was 1.5%.

What about the “Relative level of MMTV-associated radioactivity (%): p17, p13” value (“Relative level … (%): p17, p13” below) (24 hr, 15 min pulse labelling, control 3.3) of the same molecule?
Its value is 4.7%.

And the “Relative level of MMTV-associated radioactivity (%): gp60; gp52” value (“Relative level … (%): gp60; gp52” below) (24 hr, 15 min pulse labelling, control 12.7)?
Its value is 10.6%.

What about the “Relative level of MMTV-associated radioactivity (%): Pr gag/pol” value (from here on “Relative level … (%): Pr gag/pol”) (24 hr, 15 min pulse labelling, control 82.2) of the same molecule?
Its value is 83.2%.

And the “Relative level … (%): p24” value (24 hr, 24 hr labeling, control 2.5)?
The value was 3.8%.

And the “Relative level … (%): p17, p13” value (24 hr, 24 hr labeling, control 7.2)?
Its value is 7.9%.

And the “Relative level … (%): gp60; gp52” value (24 hr, 24 hr labeling, control 15.6)?
The value was 20.2%.

And the “Relative level … (%): Pr gag/pol” value (24 hr, 24 hr labeling, control 60.9)?
The value was 60.9%.

And the “mean dpm” value (48 hr treatment, 24 hr labeling, control 62,745)?
The value was 78,973 dpm.

What about the “Relative level … (%): p17, p13” value (48 hr, 15 min pulse labelling, control 3.4) of the same molecule?
Its value is 6.3%.

And the “Relative level … (%): p24” value (48 hr, 15 min pulse labelling, control 3.5)?
Its value is 3.3%.

What about the “Relative level … (%): gp60; gp52” value (48 hr, 15 min pulse labelling, control 8.9) of the same molecule?
Its value is 10.6%.

And the “Relative level … (%): Pr gag/pol” value (48 hr, 15 min pulse labelling, control 84.2)?
The value was 80%.

What about the “Relative level … (%): p17, p13” value (48 hr, 24 hr labeling, control 1.7) of the same molecule?
The value was 4.3%.

And the “Relative level … (%): p24” value (48 hr, 24 hr labeling, control 3.5)?
Its value is 2.4%.

What about the “Relative level … (%): gp60; gp52” value (48 hr, 24 hr labeling, control 19.6) of the same molecule?
The value was 23.6%.

And the “Relative level … (%): Pr gag/pol” value (48 hr, 24 hr labeling, control 75.2)?
Its value is 69.7%.
